From patent CN112851815A
These are yes or no findings as the source states them, for the method shown. Some binding calls cover weakened binding; strength is not graded here.

Protein sequences, listed by entry. Tags and fused reporters are not part of them.
UniProt Q02223: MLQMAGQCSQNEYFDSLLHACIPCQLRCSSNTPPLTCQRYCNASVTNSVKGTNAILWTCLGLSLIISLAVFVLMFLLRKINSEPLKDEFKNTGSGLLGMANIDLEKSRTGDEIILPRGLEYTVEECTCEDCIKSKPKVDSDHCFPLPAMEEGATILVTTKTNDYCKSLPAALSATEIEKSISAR

Molecular target: BCMA on K562-BCMA cells (稳定表达BCMA的阳性细胞K562-BCMA) (UniProt Q02223)
Assay: immunofluorescence microscopy on fixed K562-BCMA cells, PE anti-His detection

binding: binds
B1: 抗BCMA单链抗体B36 (anti-BCMA fully human scFv B36) (scFv, not shown: small tags and cut ends)
scFv: QVQLVQSGAEVKKPGSSVKVSCKASGGTFSSYAISWVRQAPGQGLEWMGRIIPILGIANYAQKFQGRVTITADESTSTAYMELSSLRSDDTAVYYCARAGYDRSGYYFQHWGQGTLVTVSSGGGGSGGGGSGGGGSVLTQPPSVSGTPGQRVTISCSGSSSNIGSNIVNWYQQVPGTAPKLLIYSNNQRPSGVPGRFSGSKSGTSASLAIRGLQSDDEADYYCAAWDGGPRGHYVFGTGTKVSVL
